Results from publication PMC8842155.
No constants are given. Whether binding was seen depends on the method and setting. Binding seen in cells or lysates may run through a third protein. Some entries that bind do so weakly or less than the wild type. For part of these data: Where a sequence is shown, tags or fusion partners need not be part of it.

Sequences of proteins named here, by UniProt entry; tags and fusion partners are left off. Residues count along the entry.
UniProt P23818, residues 19-907: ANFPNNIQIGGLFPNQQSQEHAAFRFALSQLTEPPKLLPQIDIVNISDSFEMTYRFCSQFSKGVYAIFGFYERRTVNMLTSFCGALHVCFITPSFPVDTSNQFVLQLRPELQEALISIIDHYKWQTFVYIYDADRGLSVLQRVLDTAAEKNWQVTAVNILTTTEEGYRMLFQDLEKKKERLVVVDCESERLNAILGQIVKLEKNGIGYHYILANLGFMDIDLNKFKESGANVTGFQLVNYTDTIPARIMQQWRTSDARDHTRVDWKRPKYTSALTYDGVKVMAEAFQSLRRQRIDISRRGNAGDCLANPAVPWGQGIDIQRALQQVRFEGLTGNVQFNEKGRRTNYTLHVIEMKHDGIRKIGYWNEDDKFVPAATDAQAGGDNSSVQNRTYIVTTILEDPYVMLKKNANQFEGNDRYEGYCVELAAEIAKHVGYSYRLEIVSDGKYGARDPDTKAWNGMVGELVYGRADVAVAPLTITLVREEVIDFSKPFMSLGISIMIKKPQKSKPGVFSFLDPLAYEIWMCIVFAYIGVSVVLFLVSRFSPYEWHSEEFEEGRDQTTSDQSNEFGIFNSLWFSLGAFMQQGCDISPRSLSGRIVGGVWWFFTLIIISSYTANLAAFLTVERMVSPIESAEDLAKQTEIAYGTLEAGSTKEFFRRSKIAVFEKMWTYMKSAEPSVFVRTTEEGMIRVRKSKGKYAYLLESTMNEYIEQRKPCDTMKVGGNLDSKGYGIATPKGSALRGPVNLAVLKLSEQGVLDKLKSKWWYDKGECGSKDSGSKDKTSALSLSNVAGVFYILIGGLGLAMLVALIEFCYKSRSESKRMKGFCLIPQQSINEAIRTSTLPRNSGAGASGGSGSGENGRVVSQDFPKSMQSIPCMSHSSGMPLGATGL
UniProt Q9Z2W9, residues 23-888: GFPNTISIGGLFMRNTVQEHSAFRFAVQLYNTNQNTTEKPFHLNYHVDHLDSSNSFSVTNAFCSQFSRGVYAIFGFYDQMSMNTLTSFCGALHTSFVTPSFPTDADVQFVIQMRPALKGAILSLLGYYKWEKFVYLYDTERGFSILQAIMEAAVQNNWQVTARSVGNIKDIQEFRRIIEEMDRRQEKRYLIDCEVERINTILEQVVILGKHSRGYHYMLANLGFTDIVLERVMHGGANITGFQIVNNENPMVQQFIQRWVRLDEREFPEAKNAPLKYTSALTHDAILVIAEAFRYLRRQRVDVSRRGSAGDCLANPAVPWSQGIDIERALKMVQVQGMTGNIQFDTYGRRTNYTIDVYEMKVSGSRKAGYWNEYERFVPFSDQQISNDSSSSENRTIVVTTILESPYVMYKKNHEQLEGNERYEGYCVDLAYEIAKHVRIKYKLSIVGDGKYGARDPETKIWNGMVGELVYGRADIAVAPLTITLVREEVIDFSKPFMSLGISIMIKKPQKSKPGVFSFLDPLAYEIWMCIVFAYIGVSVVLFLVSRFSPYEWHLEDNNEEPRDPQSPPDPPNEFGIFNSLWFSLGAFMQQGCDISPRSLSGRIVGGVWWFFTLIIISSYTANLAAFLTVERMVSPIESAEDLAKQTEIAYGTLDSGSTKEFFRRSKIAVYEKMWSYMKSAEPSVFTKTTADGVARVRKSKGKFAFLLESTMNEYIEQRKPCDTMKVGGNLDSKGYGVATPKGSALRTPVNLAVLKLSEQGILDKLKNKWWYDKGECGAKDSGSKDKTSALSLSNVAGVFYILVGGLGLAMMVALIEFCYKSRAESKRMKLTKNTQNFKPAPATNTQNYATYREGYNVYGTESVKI

T1: FLAG-tagged Prrt2 (mouse, wild type) (mouse) (UniProt E9PUL5)
T1 sequence: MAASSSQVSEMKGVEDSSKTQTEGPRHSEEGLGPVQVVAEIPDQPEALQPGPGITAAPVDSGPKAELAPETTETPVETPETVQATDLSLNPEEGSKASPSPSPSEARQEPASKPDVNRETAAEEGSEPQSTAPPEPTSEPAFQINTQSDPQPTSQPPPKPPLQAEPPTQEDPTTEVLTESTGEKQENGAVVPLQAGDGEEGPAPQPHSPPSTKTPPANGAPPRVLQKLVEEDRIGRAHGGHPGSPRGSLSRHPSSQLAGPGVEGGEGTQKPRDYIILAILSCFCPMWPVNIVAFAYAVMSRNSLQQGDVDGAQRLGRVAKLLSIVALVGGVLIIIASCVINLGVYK

B1: Proline-rich transmembrane protein 2 (Prrt2), endogenous in mouse hippocampus (protein, UniProt E9PUL5 1-346)
chain: T1 sequence

How the values were obtained:
[1] = target: T1, FLAG-tagged Prrt2 (mouse, wild type) (mouse); assay: co-IP; lysates of HEK 293T cells co-transfected with HA-tagged GluA1, GluA2 or GluA3 and FLAG-tagged Prrt2; precipitated with the FLAG antibody and Protein G beads, 4°C, Western blot
[2] = target: AMPA receptor subunit GluA1, endogenous in mouse hippocampus (mouse (endogenous in adult mouse hippocampus)) (UniProt P23818); assay: co-IP; homogenates from the adult mouse hippocampus; precipitated with GluA1, GluA2 or GluA3 antibodies, Western blot for Prrt2
[3] = target: AMPA receptor subunit GluA3, endogenous in mouse hippocampus (mouse (endogenous in adult mouse hippocampus)) (UniProt Q9Z2W9); assay: as above

Row | binding [1] | binding [2] | binding [3] | Molecule
1 | no binding |  |  | HA-tagged GluA3 (mouse) (from UniProt Q9Z2W9 23-888) (receptor)
2 |  | binds | no binding | B1
